This passage reports binding results from paper PMC8986538.

Amino acid sequences for entries named in this document (tags omitted). Residues count along the entry.
UniProt P05555, residues 17-1153: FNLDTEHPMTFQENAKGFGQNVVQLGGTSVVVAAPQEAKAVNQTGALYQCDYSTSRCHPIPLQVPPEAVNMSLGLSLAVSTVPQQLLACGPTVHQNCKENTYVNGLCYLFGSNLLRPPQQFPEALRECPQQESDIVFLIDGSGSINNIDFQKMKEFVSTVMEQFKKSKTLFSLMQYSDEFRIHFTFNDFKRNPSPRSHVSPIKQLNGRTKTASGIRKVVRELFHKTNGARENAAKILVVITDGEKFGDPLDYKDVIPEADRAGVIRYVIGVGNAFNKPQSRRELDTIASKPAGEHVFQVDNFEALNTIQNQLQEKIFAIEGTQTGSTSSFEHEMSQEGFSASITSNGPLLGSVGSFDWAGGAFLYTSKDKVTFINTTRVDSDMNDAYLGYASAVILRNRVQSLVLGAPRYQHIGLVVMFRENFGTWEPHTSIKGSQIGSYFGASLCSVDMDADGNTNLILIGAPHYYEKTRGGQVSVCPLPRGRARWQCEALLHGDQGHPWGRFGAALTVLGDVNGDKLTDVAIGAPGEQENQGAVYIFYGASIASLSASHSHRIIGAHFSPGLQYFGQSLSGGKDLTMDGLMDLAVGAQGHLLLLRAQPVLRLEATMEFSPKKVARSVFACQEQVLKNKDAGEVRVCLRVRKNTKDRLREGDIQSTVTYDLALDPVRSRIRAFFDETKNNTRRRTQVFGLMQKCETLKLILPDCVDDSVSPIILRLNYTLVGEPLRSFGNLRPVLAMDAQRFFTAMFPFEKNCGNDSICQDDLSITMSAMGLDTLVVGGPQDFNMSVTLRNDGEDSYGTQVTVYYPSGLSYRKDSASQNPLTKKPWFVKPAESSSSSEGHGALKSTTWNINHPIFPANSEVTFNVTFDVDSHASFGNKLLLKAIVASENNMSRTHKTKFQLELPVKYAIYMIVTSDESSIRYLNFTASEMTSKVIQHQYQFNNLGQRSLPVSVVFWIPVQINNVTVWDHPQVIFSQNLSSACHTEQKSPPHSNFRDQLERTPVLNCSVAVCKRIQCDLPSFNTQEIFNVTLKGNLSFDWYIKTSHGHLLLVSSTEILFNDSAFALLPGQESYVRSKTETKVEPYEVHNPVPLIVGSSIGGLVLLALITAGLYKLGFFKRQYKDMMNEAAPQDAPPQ
UniProt P11835, residues 24-771: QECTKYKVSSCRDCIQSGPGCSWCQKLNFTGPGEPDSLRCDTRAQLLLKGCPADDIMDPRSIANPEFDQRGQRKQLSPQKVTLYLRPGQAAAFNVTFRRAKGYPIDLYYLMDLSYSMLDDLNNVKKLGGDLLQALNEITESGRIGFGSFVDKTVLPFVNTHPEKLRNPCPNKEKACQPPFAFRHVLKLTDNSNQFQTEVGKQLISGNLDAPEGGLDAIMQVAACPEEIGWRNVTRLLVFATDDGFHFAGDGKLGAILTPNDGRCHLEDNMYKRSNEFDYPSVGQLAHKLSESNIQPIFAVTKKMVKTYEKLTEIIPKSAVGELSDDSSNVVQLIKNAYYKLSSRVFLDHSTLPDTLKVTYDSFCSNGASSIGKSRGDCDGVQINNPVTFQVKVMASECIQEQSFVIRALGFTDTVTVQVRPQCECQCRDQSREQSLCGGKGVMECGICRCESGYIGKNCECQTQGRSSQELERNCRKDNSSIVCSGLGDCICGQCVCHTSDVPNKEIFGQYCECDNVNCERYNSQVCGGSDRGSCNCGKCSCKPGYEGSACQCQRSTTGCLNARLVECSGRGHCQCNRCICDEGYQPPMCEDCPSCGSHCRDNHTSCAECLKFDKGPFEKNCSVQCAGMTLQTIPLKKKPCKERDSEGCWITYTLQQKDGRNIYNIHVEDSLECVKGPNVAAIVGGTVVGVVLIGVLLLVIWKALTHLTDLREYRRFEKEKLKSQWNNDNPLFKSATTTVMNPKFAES

The target in this assay is integrin subunit αM (ITGAM) (mouse (endogenous in neutrophils of C57BL/6J mice)) (UniProt P05555). Nature of the assay: co-IP; immunoprecipitation from lysates of purified wound-derived neutrophils 24 hours p.i., compared with blood neutrophils from non-wounded mice and with mice injected with the HSF inhibitors HSI or KRIBB11; immunoblots with anti-ITGAM and anti-ITGβ2; protocol as in ref. 43. (In western blotting, separated proteins are transferred to a membrane and probed.)

No constants are given. Whether binding was seen depends on the method and setting. In cells and extracts the contact can be indirect. Some binding calls cover weakened binding; strength is not graded here.

In the case of “integrin subunit beta 2 (ITGB2) (from UniProt P11835 24-771) (receptor)”, the binding result was “binds”.
